Tests used:
[1] = Phase solubility diagram; conditions: container M2
[2] = Phase solubility diagram; conditions: container SBE-β-CD
[3] = Phase solubility diagram; conditions: container M2C2

Highest drug concentration achieved with container [1]: 0 mM | Highest drug concentration achieved with container [2]: 1.71 mM | Highest drug concentration achieved with container [3]: 4.40 mM
SMILES: C(=C\c1ccccc1)/CN1CCN(C(c2ccccc2)c2ccccc2)CC1 [Cinnarizine]

From article PMC4861662 (ChemMedChem, 2016)
